Data as given in PubChem BioAssay AID1259262 (Sanger Institute, 2017)

- Screen: 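Kinase knock-downs that strengthen killing by targeted cancer drugs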 (follow-up of hits)
- System: LS513 human colorectal cancer cells
- Knock-down reagent: single siRNA against human genes
- Challenge: anchor drug or DMSO vehicle: cetuximab 5 µg/ml, trametinib 10 nM or BYL719 1 µM; exposure length not given
- Measurement: 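Cell viability relative to non-targeting control siRNA, and a synergy score for each anchor drug, averaged over replicates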
- Scale: synergy score with trametinib and synergy score with BYL719 and synergy score with cetuximab: higher = stronger synergistic loss of viability with drug; viability, siRNA with trametinib and viability, siRNA with vehicle only: higher = more viable cells
- Hit rule: 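Active when the synergy score is above 0.10 for trametinib, BYL719 or cetuximab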
- Calls: active = synergy with at least one drug; inactive = no synergy with any drug
In all, the deposit lists 160 reagents; shown is a random part of them. 93 of them (58%) count as active. 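Calls refer to single siRNAs; gene-level validation required two or more siRNAs in several lines; synergy score formula unstated.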 Entries without a mark were called inactive. The numbers tell different reagents against one gene apart. Viability is capped at 1. Not given: the amount of reagent, the time to read-out.

no.	Target gene	siRNA no.	synergy score with trametinib	synergy score with BYL719	synergy score with cetuximab	viability, siRNA with trametinib (fraction of control)	viability, siRNA with vehicle only (fraction of control)
1	GRK5 (G protein-coupled receptor kinase 5)	1	0.114 (active)	-0.226	-0.11	0.43	1
2	GRK5 (G protein-coupled receptor kinase 5)	2	0.111 (active)	-0.226	-0.11	0.433	1
3	GRK5 (G protein-coupled receptor kinase 5)	3	0.157 (active)	-0.099	-0.0789	0.262	0.771
4	GRK5 (G protein-coupled receptor kinase 5)	4	0.053	-0.0354	0.0631	0.465	0.953
5	COASY (Coenzyme A synthase)	1	0.134 (active)	-0.0746	-0.062	0.386	0.957
6	COASY (Coenzyme A synthase)	2	0.0122	-0.0451	-0.148	0.301	0.576
7	COASY (Coenzyme A synthase)	3	0.167 (active)	-0.151	-0.000546	0.0859	0.465
8	COASY (Coenzyme A synthase)	4	0.216 (active)	0.0151	-0.0234	0.109	0.599
9	EPHA6 (EPH receptor A6)	1	0.111 (active)	-0.188	-0.202	0.236	0.637
10	EPHA6 (EPH receptor A6)	2	0.031	-0.0935	-0.0763	0.131	0.297
11	EPHA6 (EPH receptor A6)	3	0.0452	-0.139	-0.0305	0.184	0.421
12	EPHA6 (EPH receptor A6)	4	0.131 (active)	-0.029	-0.0367	0.387	0.952
13	SF3B1 (splicing factor 3b subunit 1)	1	-0.0616	-0.126	-0.0542	0.195	0.245
14	SF3B1 (splicing factor 3b subunit 1)	2	0.0193	-0.0336	-0.0176	0.0809	0.184
15	SF3B1 (splicing factor 3b subunit 1)	3	0.0286	-0.00652	0.0419	0.297	0.599
16	SF3B1 (splicing factor 3b subunit 1)	4	0.00731	-0.0607	0.0107	0.0774	0.156
17	PFKFB3 (6-phosphofructo-2-kinase/fructose-2,6-biphosphatase 3)	1	0.0534	-0.165	0.00602	0.237	0.535
18	PFKFB3 (6-phosphofructo-2-kinase/fructose-2,6-biphosphatase 3)	2	0.132 (active)	-0.0759	0.00211	0.121	0.465
19	PFKFB3 (6-phosphofructo-2-kinase/fructose-2,6-biphosphatase 3)	3	-0.061	-0.294	-0.225	0.46	0.733
20	PFKFB3 (6-phosphofructo-2-kinase/fructose-2,6-biphosphatase 3)	4	0.322 (active)	-0.0675	-0.0856	0.214	0.986
21	MARK3 (microtubule affinity regulating kinase 3)	1	0.13 (active)	-0.116	0.0567	0.355	0.892
22	MARK3 (microtubule affinity regulating kinase 3)	2	0.128 (active)	-0.0503	-0.11	0.415	1
23	MARK3 (microtubule affinity regulating kinase 3)	3	-0.121	-0.174	-0.0758	0.532	0.757
24	MARK3 (microtubule affinity regulating kinase 3)	4	0.309 (active)	-0.0976	-0.00782	0.157	0.858
25	CDK6 (cyclin dependent kinase 6)	1	0.0786	-0.0255	0.0454	0.377	0.838
26	CDK6 (cyclin dependent kinase 6)	2	0.0618	-0.14	0.0054	0.11	0.316
27	CDK6 (cyclin dependent kinase 6)	3	0.0717	-0.15	-0.0154	0.437	0.936
28	CDK6 (cyclin dependent kinase 6)	4	0.213 (active)	-0.0968	0.0988	0.273	0.895
29	MAPK4 (mitogen-activated protein kinase 4)	1	0.0327	-0.0865	-0.0809	0.425	0.841
30	MAPK4 (mitogen-activated protein kinase 4)	2	0.0717	-0.0453	-0.151	0.333	0.745
31	MAPK4 (mitogen-activated protein kinase 4)	3	0.318 (active)	-0.00712	0.107	0.196	0.945
32	MAPK4 (mitogen-activated protein kinase 4)	4	0.069	-0.127	-0.189	0.195	0.486
33	SYK (spleen associated tyrosine kinase)	1	0.114 (active)	0.0869	-0.0248	0.252	0.672
34	SYK (spleen associated tyrosine kinase)	2	0.171 (active)	-0.156	0.0182	0.217	0.713
35	SYK (spleen associated tyrosine kinase)	3	0.293 (active)	-0.04	-0.00585	0.0735	0.675
36	SYK (spleen associated tyrosine kinase)	4	0.146 (active)	-0.144	-0.105	0.398	1

Next part (6 carried over from the part before).
no.	Target gene	siRNA no.	synergy score with trametinib	synergy score with BYL719	synergy score with cetuximab	viability, siRNA with trametinib (fraction of control)	viability, siRNA with vehicle only (fraction of control)
31	MAPK4 (mitogen-activated protein kinase 4)	3	0.318 (active)	-0.00712	0.107	0.196	0.945
32	MAPK4 (mitogen-activated protein kinase 4)	4	0.069	-0.127	-0.189	0.195	0.486
33	SYK (spleen associated tyrosine kinase)	1	0.114 (active)	0.0869	-0.0248	0.252	0.672
34	SYK (spleen associated tyrosine kinase)	2	0.171 (active)	-0.156	0.0182	0.217	0.713
35	SYK (spleen associated tyrosine kinase)	3	0.293 (active)	-0.04	-0.00585	0.0735	0.675
36	SYK (spleen associated tyrosine kinase)	4	0.146 (active)	-0.144	-0.105	0.398	1
37	STK36 (serine/threonine kinase 36)	1	0.199 (active)	-0.214	-0.0897	0.0553	0.468
38	STK36 (serine/threonine kinase 36)	2	-0.111	-0.223	-0.11	0.655	1
39	STK36 (serine/threonine kinase 36)	3	0.139 (active)	-0.149	-0.116	0.272	0.756
40	STK36 (serine/threonine kinase 36)	4	0.116 (active)	-0.184	-0.074	0.382	0.916
41	IRAK3 (interleukin 1 receptor associated kinase 3)	1	0.217 (active)	-0.142	0.0632	0.104	0.592
42	IRAK3 (interleukin 1 receptor associated kinase 3)	2	0.378 (active)	0.0628	0.166	0.165	1
43	IRAK3 (interleukin 1 receptor associated kinase 3)	3	0.12 (active)	-0.0575	-0.0195	0.276	0.728
44	IRAK3 (interleukin 1 receptor associated kinase 3)	4	0.0643	-0.00671	-0.11	0.479	1
45	PIK3CA	1	-0.00142	-0.201	-0.145	0.4	0.732
46	PIK3CA	2	0.197 (active)	-0.075	-0.025	0.302	0.919
47	PIK3CA	3	0.108 (active)	-0.204	-0.163	0.403	0.94
48	PIK3CA	4	0.12 (active)	-0.212	-0.11	0.423	1
49	RPS6KA4 (ribosomal protein S6 kinase A4)	1	-0.00614	-0.122	-0.0616	0.504	0.915
50	RPS6KA4 (ribosomal protein S6 kinase A4)	2	0.138 (active)	-0.186	-0.11	0.406	1
51	RPS6KA4 (ribosomal protein S6 kinase A4)	3	0.246 (active)	-0.0299	-0.017	0.298	1
52	RPS6KA4 (ribosomal protein S6 kinase A4)	4	0.409 (active)	0.0307	0.0541	0.112	0.958
53	BMPR2 (bone morphogenetic protein receptor type 2)	1	0.0415	-0.125	-0.11	0.502	1
54	BMPR2 (bone morphogenetic protein receptor type 2)	2	0.102 (active)	-0.139	0.0266	0.2	0.555
55	BMPR2 (bone morphogenetic protein receptor type 2)	3	0.0798	-0.0899	0.0903	0.44	0.955
56	BMPR2 (bone morphogenetic protein receptor type 2)	4	-0.238	-0.226	-0.11	0.782	1
57	HUNK (hormonally up-regulated Neu-associated kinase)	1	0.112 (active)	0.0894	-0.0735	0.238	0.644
58	HUNK (hormonally up-regulated Neu-associated kinase)	2	0.211 (active)	0.0531	0.0833	0.0832	0.541
59	HUNK (hormonally up-regulated Neu-associated kinase)	3	0.0856	-0.0991	-0.0665	0.291	0.693
60	HUNK (hormonally up-regulated Neu-associated kinase)	4	0.135 (active)	-0.0437	0.0247	0.195	0.608
61	HSPB8 (heat shock protein family B (small) member 8)	1	0.245 (active)	-0.253	-0.154	0.136	0.702
62	HSPB8 (heat shock protein family B (small) member 8)	2	-0.115	-0.0685	-0.0733	0.659	1
63	HSPB8 (heat shock protein family B (small) member 8)	3	0.0487	-0.19	-0.169	0.459	0.934
64	HSPB8 (heat shock protein family B (small) member 8)	4	0.128 (active)	-0.0407	-0.222	0.246	0.688
